In PubChem BioAssay AID288 (DTP/NCI, 2004):
The list shows only some results of the screen, not a fair sample: it gathers tests that were run many times, whatever their T/C, doses with no T/C, and many T/C values between a quarter and a half above the control. Other doses and runs of a compound stand elsewhere. T/C: endpoint of the treated group in % of that of the vehicle group. Schedules are NCI's codes, read here as Q, the interval in days (D) or hours (H), X, the number of doses. Some doses have a count of surviving animals in place of a T/C: the source holds a T/C of zero for them, seemingly a mark for toxic or unscored doses. Some doses without a T/C left all or most animals alive at the check, yet need not have been tolerated: the source hardly ever lists a survival T/C far under the control, and the zero likely stands for such cases as well. Counts of survivors are from the toxicity check (mostly the fifth day) where no day follows; animals may have died later. For survival time, this PubChem deposit counts one and a half times the control or more as active, and values a quarter to a half above the control carry no call in these data; other NCI protocols may use other cut-offs.

Tested on: BDF1 mice, M5076 sarcoma s.c., survival/tumor T/C
Assay: NCI In Vivo Anticancer Drug Screen. Data for tumor model Sarcoma M5076 (subcutaneous) in B6D2F1 (BDF1) mice
Description: The antitumor activity of compounds was measured in mice bearing transplantable tumors. Survival or tumor size were measured and the results are expressed as the measurement made in the treated group (T) divided by the measurement made in the vehicle treated control group (C). The tumor model used in this assay is Sarcoma M5076 (subcutaneous) in B6D2F1 (BDF1) mice

## COC(=O)C(Cc1ccccc1)NS(=O)(=O)c1ccc(C)cc1 (centres undefined)
T/C endpoint: median tumor weight (est.), dose: 50.0 mg/kg/injection, schedule: Q01DX009 (ip), vehicle: saline with Tween-80, evaluated on day 20, higher T/C = larger tumour
  T/C: 138 % of control
T/C endpoint: median tumor weight (est.), dose: 200.0 mg/kg/injection, schedule: Q01DX009 (ip), vehicle: saline with Tween-80, evaluated on day 20, higher T/C = larger tumour
  T/C: 130 % of control

## CN(C)S(=O)(=O)c1ccc(CCCCc2ccc(N3C(N)=NC(N)=NC3(C)C)cc2Cl)c(Cl)c1
T/C endpoint: median survival time, dose: 62.0 mg/kg/injection, schedule: Q01DX009 (ip), vehicle: saline with Tween-80, higher T/C = longer survival
  survivor count: 0 of 10
T/C endpoint: median survival time, dose: 100.0 mg/kg/injection, schedule: Q01DX009 (ip), vehicle: saline with Tween-80, higher T/C = longer survival
  survivor count: 0 of 10
T/C endpoint: median survival time, dose: 160.0 mg/kg/injection, schedule: Q01DX009 (ip), vehicle: saline with Tween-80, higher T/C = longer survival
  survivor count: 0 of 10

## C1CN(P2(N3CC3)=NP(N3CC3)(N3CC3)=NP(N3CC3)(N3CC3)=N2)CCO1 (centres undefined)
T/C endpoint: median survival time, dose: 100.0 mg/kg/injection, schedule: Q02DX011 (ip), vehicle: saline, higher T/C = longer survival
  survivor count: 3 of 10 on day 16
T/C endpoint: median survival time, dose: 200.0 mg/kg/injection, schedule: Q02DX011 (ip), vehicle: saline, higher T/C = longer survival
  survivor count: 0 of 10 on day 16

## S=c1nc[nH]c2nc[nH]c12
T/C endpoint: median survival time, dose: 25.0 mg/kg/injection, schedule: Q02DX033 (ip), vehicle: saline with Tween-80, higher T/C = longer survival
  survivor count: 3 of 10 on day 16

## COC1C(O)C(C)OC(OC2C(Oc3cccc4c(O)c5c(=O)oc6ccc(C)c7c(=O)oc(c34)c5c67)OC(C)C(O)C2O)C1O (centres undefined)
T/C endpoint: median tumor weight (est.), dose: 25.0 mg/kg/injection, schedule: Q02DX011 (ip), vehicle: Klucel (hydroxypropylcellulose) (HPC), evaluated on day 22, higher T/C = larger tumour
  T/C: 130 % of control

## O=C(O)CCCc1ccc(N(CCCl)CCCl)cc1
T/C endpoint: median survival time, dose: 6.0 mg/kg/injection, schedule: Q02DX033 (ip), vehicle: saline with Tween-80, higher T/C = longer survival
  survivor count: 5 of 10 on day 16
T/C endpoint: median survival time, dose: 12.0 mg/kg/injection, schedule: Q02DX033 (ip), vehicle: saline with Tween-80, higher T/C = longer survival
  survivor count: 0 of 10 on day 16
T/C endpoint: median survival time, dose: 24.0 mg/kg/injection, schedule: Q04DX006 (ip), vehicle: saline with Tween-80, higher T/C = longer survival
  survivor count: 6 of 10 on day 16

## COc1cc(C(C)(C)C)cc(OC)c1C(O)(c1c(OC)cc(C(C)(C)C)cc1OC)c1c(OC)cc(C(C)(C)C)cc1OC
T/C endpoint: median survival time, dose: 200.0 mg/kg/injection, schedule: Q04DX003 (ip), vehicle: saline with Tween-80, higher T/C = longer survival
  survivor count: 6 of 10 on day 57
T/C endpoint: median survival time, dose: 400.0 mg/kg/injection, schedule: Q04DX003 (ip), vehicle: saline with Tween-80, higher T/C = longer survival
  survivor count: 0 of 10 on day 57

## Nc1n[n+](-c2ccc(Cl)cc2)no1
T/C endpoint: median survival time, dose: 100.0 mg/kg/injection, schedule: Q04DX003 (ip), vehicle: water, higher T/C = longer survival
  survivor count: 0 of 10 on day 63
T/C endpoint: median survival time, dose: 200.0 mg/kg/injection, schedule: Q04DX003 (ip), vehicle: water, higher T/C = longer survival
  survivor count: 0 of 10 on day 63

## CC(=O)O[C@H]1C(=O)[C@@]2(C)[C@H]([C@H](OC(=O)c3ccccc3)[C@]3(O)C[C@H](OC(=O)[C@H](O)[C@@H](NC(=O)c4ccccc4)c4ccccc4)C(C)=C1C3(C)C)[C@]1(OC(C)=O)CO[C@@H]1C[C@@H]2O
T/C endpoint: median survival time, dose: 2.96 mg/kg/injection, schedule: Q02DX011 (ip), vehicle: other, higher T/C = longer survival
  T/C: 130 % of control
T/C endpoint: median survival time, dose: 20.0 mg/kg/injection, schedule: Q04DX003 (ip), vehicle: Klucel (hydroxypropylcellulose) (HPC), higher T/C = longer survival
  survivor count: 3 of 10
T/C endpoint: median survival time, dose: 22.5 mg/kg/injection, schedule: Q02DX011 (ip), vehicle: Klucel (hydroxypropylcellulose) (HPC), higher T/C = longer survival
  survivor count: 10 of 10
T/C endpoint: median tumor weight (est.), dose: 22.5 mg/kg/injection, schedule: Q02DX011 (ip), vehicle: Klucel (hydroxypropylcellulose) (HPC), higher T/C = larger tumour
  survivor count: 1 of 10 on day 22

## O=NN(CCCl)C(=O)NC1CCCCC1
T/C endpoint: median survival time, dose: 1.5 mg/kg/injection, schedule: Q01DX009 (ip), vehicle: Klucel (hydroxypropylcellulose) (HPC), higher T/C = longer survival
  T/C: 126 % of control
T/C endpoint: median survival time, dose: 24.0 mg/kg/injection, schedule: Q01DX009 (ip), vehicle: Klucel (hydroxypropylcellulose) (HPC), higher T/C = longer survival
  survivor count: 10 of 10

## COC(=O)C[C@](O)(CCCC(C)(C)O)C(=O)O[C@@H]1C(OC)=C[C@]23CCCN2CCc2cc4c(cc2[C@H]13)OCO4
T/C endpoint: mean tumor weight, dose: 1.0 mg/kg/injection, schedule: Q02DX011 (ip), vehicle: saline, evaluated on day 22, higher T/C = larger tumour
  T/C: 130 % of control
T/C endpoint: median tumor weight (est.), dose: 1.0 mg/kg/injection, schedule: Q02DX011 (ip), vehicle: saline, evaluated on day 22, higher T/C = larger tumour
  T/C: 129 % of control
